Data taken from ChEMBL document CHEMBL3988442, “University of Dundee, Small-Polar-MMV Screening Library” (2021).

The chains behind the UniProt entries cited, without tags or fusion partners. Residues count along the entry.
UniProt P9WNZ1, whole entry: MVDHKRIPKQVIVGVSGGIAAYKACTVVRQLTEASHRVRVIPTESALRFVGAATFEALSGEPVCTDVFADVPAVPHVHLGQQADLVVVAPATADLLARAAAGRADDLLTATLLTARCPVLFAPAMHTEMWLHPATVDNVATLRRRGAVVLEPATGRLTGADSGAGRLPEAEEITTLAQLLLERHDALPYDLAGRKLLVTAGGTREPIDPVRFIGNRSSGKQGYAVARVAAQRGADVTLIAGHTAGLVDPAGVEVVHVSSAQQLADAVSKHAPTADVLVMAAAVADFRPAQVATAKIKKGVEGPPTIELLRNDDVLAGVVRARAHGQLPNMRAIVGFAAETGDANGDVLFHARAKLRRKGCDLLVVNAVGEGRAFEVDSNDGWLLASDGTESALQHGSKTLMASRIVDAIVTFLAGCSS
UniProt Q8IDJ8, 1-583: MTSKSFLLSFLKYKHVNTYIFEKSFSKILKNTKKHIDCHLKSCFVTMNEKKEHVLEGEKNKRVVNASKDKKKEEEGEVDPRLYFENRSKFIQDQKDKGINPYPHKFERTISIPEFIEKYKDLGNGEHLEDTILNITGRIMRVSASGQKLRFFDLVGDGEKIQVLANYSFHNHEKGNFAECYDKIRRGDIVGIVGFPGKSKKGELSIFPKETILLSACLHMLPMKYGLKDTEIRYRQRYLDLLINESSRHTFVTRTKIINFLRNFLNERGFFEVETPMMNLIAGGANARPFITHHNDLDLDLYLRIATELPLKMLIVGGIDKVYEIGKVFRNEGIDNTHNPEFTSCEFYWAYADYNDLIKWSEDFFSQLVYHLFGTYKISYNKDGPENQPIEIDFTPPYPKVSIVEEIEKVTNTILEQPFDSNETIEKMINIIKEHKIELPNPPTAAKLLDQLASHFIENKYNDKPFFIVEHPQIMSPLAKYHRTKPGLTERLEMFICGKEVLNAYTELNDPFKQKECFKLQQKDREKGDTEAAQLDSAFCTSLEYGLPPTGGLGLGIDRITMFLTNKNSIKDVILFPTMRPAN
UniProt P9WFT3, whole entry: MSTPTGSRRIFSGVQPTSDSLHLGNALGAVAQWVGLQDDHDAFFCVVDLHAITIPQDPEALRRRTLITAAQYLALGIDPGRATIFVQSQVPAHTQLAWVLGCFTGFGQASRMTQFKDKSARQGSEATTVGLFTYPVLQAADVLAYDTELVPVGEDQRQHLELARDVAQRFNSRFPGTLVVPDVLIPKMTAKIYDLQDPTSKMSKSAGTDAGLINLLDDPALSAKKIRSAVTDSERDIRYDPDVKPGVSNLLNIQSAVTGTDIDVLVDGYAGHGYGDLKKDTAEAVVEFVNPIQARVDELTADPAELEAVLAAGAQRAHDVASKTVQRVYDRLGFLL
UniProt I6X8D2, whole entry: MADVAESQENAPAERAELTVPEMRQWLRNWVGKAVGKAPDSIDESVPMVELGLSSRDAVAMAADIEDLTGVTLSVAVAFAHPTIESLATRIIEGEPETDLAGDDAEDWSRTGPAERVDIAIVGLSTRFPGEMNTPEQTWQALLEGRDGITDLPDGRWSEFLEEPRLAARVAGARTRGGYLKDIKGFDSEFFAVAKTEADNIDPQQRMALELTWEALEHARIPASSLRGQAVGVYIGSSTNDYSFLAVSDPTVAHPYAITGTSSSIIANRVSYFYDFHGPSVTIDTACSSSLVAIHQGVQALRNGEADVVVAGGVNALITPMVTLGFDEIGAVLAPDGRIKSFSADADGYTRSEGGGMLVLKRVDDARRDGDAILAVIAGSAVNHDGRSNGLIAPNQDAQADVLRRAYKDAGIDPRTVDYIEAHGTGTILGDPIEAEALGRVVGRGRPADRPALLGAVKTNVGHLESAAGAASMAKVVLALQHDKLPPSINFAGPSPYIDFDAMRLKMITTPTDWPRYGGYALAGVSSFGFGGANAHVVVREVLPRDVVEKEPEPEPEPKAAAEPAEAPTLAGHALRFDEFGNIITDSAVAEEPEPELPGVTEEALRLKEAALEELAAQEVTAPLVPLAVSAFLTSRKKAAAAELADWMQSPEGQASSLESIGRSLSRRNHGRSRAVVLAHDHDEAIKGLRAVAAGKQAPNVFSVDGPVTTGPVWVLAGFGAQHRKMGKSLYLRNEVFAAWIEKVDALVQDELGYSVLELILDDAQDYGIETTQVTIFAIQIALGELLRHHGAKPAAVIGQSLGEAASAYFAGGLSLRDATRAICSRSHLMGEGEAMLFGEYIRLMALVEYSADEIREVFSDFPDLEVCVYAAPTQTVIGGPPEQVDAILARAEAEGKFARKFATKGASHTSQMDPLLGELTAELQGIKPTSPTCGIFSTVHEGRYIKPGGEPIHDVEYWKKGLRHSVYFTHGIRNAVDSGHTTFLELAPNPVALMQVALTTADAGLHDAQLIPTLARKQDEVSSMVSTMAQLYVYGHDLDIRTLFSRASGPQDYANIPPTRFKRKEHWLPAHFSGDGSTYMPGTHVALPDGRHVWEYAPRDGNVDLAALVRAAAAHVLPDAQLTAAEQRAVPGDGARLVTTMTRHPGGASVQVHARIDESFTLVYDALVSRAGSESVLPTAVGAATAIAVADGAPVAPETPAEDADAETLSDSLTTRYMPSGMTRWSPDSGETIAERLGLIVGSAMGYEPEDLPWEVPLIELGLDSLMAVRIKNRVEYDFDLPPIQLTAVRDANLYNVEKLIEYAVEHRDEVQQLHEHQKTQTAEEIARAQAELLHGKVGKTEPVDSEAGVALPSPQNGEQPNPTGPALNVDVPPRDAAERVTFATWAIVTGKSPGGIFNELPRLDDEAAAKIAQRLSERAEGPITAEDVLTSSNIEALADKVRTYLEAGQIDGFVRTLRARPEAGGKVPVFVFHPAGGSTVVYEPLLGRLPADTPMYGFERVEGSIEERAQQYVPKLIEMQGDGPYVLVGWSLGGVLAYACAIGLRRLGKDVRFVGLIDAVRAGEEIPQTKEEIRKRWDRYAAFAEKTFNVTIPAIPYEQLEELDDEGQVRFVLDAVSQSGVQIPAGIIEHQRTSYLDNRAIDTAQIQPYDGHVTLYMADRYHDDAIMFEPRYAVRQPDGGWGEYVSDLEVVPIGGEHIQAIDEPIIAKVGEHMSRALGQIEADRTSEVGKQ

CoaBC: 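Coenzyme A biosynthesis protein CoaBC, Mycobacterium tuberculosis (UniProt P9WNZ1). Enzyme assay of CoaBC with a phosphate dye (Biomol Green) read at 650 nm. Tested at 30 µM. Higher reads as stronger inhibition, judged from the few compounds that gave an IC50. Most strong results did not repeat in a second test. About 67,000 compounds were tested under these conditions; 0.06% (about 40) showed 50% or more at least once.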
PfKRS1: 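Lysine-tRNA ligase, Plasmodium falciparum 3D7 (UniProt Q8IDJ8). Enzyme assay of the cytosolic lysyl-tRNA synthetase in 384-well plates, read by luminescence. Compounds at 30 µM. Higher reads as stronger inhibition, judged from the few compounds that gave an IC50. Size under these conditions: about 69,000 compounds, about 49 of them at 50% or above in at least one test.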
Toxoplasma: 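Assay of Toxoplasma gondii numbers, read through their beta-galactosidase reporter with a colour substrate. Tested at 10 µM. The record gives no direction; the compounds picked for IC50 retests had high values, so higher reads as fewer parasites. Size under these conditions: about 67,000 compounds, about 260 of them at 50% or above in at least one test.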
MtTrpRS: 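Tryptophan-tRNA ligase, Mycobacterium tuberculosis (UniProt P9WFT3). Enzyme assay of tryptophanyl-tRNA synthetase; the read-out is not stated. Concentration: 10 µM. Direction is not recorded; retested compounds ran higher, which suggests that high means inhibition. About 65,000 compounds were tested under these conditions; 0.098% (about 64) showed 50% or more at least once.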
Pks13 thioesterase: 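Enzyme assay of the thioesterase domain of polyketide synthase 13; the read-out is not stated. Target: Polyketide synthase Pks13, Mycobacterium tuberculosis (UniProt I6X8D2). Tested at 30 µM. The record gives no direction; the compounds picked for IC50 retests had high values, so higher reads as stronger inhibition. Size under these conditions: about 67,000 compounds, about 300 of them at 50% or above in at least one test.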

Each number is a percent effect as filed. How 0% and 100% were set is not recorded. Most values in the screen are low, and negative values occur. Compounds were drawn at random from those tested, without regard to their results. A dash means the value is not listed here; it may have been measured.

compound | CoaBC | PfKRS1 | Toxoplasma | MtTrpRS | Pks13 thioesterase
COCC1c2c(cnn2C)CCN1Cc1ccc(C)cc1.O=C(O)C(F)(F)F.O=C(O)C(F)(F)F (stereo not shown) | - | - | 1.726% | - | -
CN(c1nccc(-c2cnc3sc(Cl)cn3c2=O)n1)C1CCCCC1 | 3.494% | 3.087% | 2.238% | - | 4%
Cc1nn(C)cc1C(=O)Nc1cccc(CN2CCC(CO)CC2)c1 | 2.024% | 1.242% | -1.86% | 20.66% | -7.826%
CN1CCN(Cc2cnc3n2CCN(C(=O)c2ccccn2)C3)CC1 | 3.046% | -0.5341% | 19.32% | -6.337% | -11.53%
Cc1nc2ccccn2c1CN1C[C@@H](CN(C)C)[C@@H](CO)C1 | 2.056% | 1.224% | -3.106% | 7.346% | -3.469%
CN(CC(=O)Nc1ccncc1)C1CCCN(c2cccnn2)C1 (stereo not shown) | 2.171% | 1.236% | -13.5% | -2.128% | -13.42%
CC(C)Nc1nc2c(cc1C(=O)O)CCN(Cc1ccsc1)CC2 | 0.6165% | 3.444% | - | -6.826% | -5.466%
CCOc1ncccc1CNCc1c(C)nn(C)c1N(C)C | -5.093% | -1.97% | -13.33% | 13.49% | -14.12%
Fc1cnc(N2CCCn3cnc(COc4cccnc4)c3C2)nc1 | 5.122% | 3.784% | - | - | 5.443%
O=C(NC1CC1)C1(Cc2cc(-c3ccc(F)cc3F)no2)CCOCC1 | 1.471% | 0.5584% | -26.56% | - | 10.25%
CC(NC(=O)NCCCN(C)C)c1ccc2c(c1)CCC(=O)N2 (stereo not shown) | -2.892% | -4.602% | 2.329% | 3.437% | -11.88%
CN1CCN(S(=O)(=O)c2cccc(F)c2)c2cnccc21 | -6.622% | 11.99% | 18.37% | -0.4167% | -72.97%
O=C(c1ccc2c(c1)CCO2)N1CCN(c2ccc(Cl)cn2)CC1 | 0.8783% | 0.1731% | -11.8% | 2.445% | -2.379%
CN1CCN(C(=O)NC2CCCC2)Cc2cccnc21.O=C(O)C(F)(F)F | - | - | -0.2817% | - | -
O=C(O)C(F)(F)F.O=C(O)C(F)(F)F.[H][C@@]12CN(C(=O)c3cccc(C)n3)C[C@]1([H])OCCN2c1ncccn1 | - | - | -5.021% | - | -
Cn1cccc1CN1CCC2(CC1)CN(c1ncccn1)CCO2.O=C(O)C(F)(F)F | - | - | 7.173% | - | -
O=C(c1cccnc1-n1cncn1)N1CCN(C2CCCC2)CC1 | 1.603% | 5.171% | -7.838% | -3.439% | -
O=C(NCC1(C(=O)O)CCC1)c1nnn(-c2ccc(F)cc2)c1C1CC1 | 0.3968% | 2.192% | -0.8039% | 5.464% | -6.728%
Cc1nccc([C@@H]2C[C@@H]3CCN(S(=O)(=O)N(C)C)C[C@H]3O2)n1 | -5.679% | 1.69% | - | -2.632% | -5.873%
CN(C)CCOCC1CN(Cc2ccoc2)Cc2nnn(C)c21.O=C(O)C(F)(F)F.O=C(O)C(F)(F)F (stereo not shown) | - | - | -9.334% | - | -
CCNC(=O)N1CC2=CC(C)(C)COc3ccc(OC)c(c32)C1 | 1.453% | 3.769% | 9.41% | - | -13.56%
CC(Cn1cccn1)NCc1csc(-c2ccc3c(c2)OCO3)n1 (stereo not shown) | -10.66% | 5.025% | 0.7275% | -2.328% | -37.57%
CN(C)CCCNC(=O)c1ccccc1NC(=O)c1ccccc1Cl | 5.225% | 5.525% | - | 2.09% | -11.22%
COCCn1cnnc1CN(C)c1nc(N)ncc1C | 8.068% | 9.104% | 4.862% | 1.192% | -16.72%
O=C(c1csc(C2CC2)n1)N1CCCC1Cn1cccn1 (stereo not shown) | 3.704% | 0.8036% | 4.653% | 2.421% | -
CNC(=O)CN1CCN(C(=O)Nc2ccc(Cl)cc2F)CC1 | 4.485% | 5.663% | 18.96% | -0.1347% | -9.419%
NC(=O)c1cc(-c2cccc(C(=O)O)c2)cs1 | 14.11% | 1.224% | -1.799% | -5.509% | -10.74%
Cn1ccnc1CN1CCCN(C(=O)COCC2CC2)CC1 | 2.163% | 1.702% | -16.49% | -4.217% | -10.64%
CNc1cc(CNC(=O)c2cccnc2)nc(-c2ccncc2)n1 | 2.67% | 3.762% | 6.349% | - | 11.99%
CCc1ccc(CCn2cnc(C#N)n2)cc1 | 2.675% | -3.869% | 3.328% | -3.579% | -20.13%
Cc1cnn(C2CCCN(C(=O)CCc3nccs3)C2)c1 (stereo not shown) | -6.287% | 1.71% | 5.916% | -2.113% | -7.274%
CC1CC(=O)c2cc(C(=O)N3CCOCC3)c(=O)[nH]c2C1 (stereo not shown) | 3.924% | 1.44% | -17.26% | 1.898% | -4.444%
O=C(c1cnccn1)N1C[C@@H](OCc2ccncc2)[C@@H]2OCCC[C@@H]21 | 7.268% | -1.174% | - | -1.936% | 31.42%
Cc1nnc([C@@]23CCO[C@@H]2CCN(S(C)(=O)=O)C3)o1 | 9.165% | -2.601% | - | 14.43% | 1.661%
Cc1cc(C)c(C(=O)N2CCN(c3ncccc3C#N)CC2)c(=O)[nH]1 | -0.3654% | 3.951% | -0.9831% | 2.577% | -22.82%
[H][C@]12CC[C@@]3(N=C(c4ccccc4)NC3=O)[C@@]1([H])CN(S(=O)(=O)C1CC1)C2 | - | - | 1.847% | - | -
O=C(O)C(F)(F)F.[H][C@]12CCN(Cc3ccccc3)CC[C@@]1([H])S(=O)(=O)N(CC(=O)N(C)C)C2 | - | - | 2.032% | - | -
COc1cc(CO)ccc1OCc1nc(C2CC2)no1 | 3.212% | 4.234% | -2.487% | -0.08489% | -26.9%
O=C(O)C(F)(F)F.O=C(O)C(F)(F)F.[H][C@]12C[C@H](CN(C)C)O[C@@]1([H])CN(Cc1ccoc1)C2 | - | - | -3.07% | - | -
N#CCc1cccc(C(=O)N2CCN(CC(O)c3ccccc3)CC2)c1 (stereo not shown) | 1.818% | 0.239% | -7.76% | -2.077% | 2.155%
COc1cc2c(cc1OC)CN(Cc1ncccc1C(=O)O)CC2 | 8.387% | 4.907% | 2.378% | 11.24% | -10%